# Among all 31,000 sequences or so, about 1,400 (4.5%) were called active.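 The calls were made as follows: active = median seed-adjusted z-score above 1 or below -1; inactive = the rest.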 The list shows a part of the results.
# Assay: Novel Modifiers of Survival Motor Neuron (SMN) Protein: Gene Identification via Genome-wide siRNA Screen;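 also: luminescence tracks full-length SMN protein made from the SMN2 reporter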
# Conditions: HEK293T SMN2-luciferase reporter, siRNA knockdown, 72 h; actives lie on both sides
# Summary of the method: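 Genome-wide siRNA screen (10418 genes, 3 siRNAs each, 1 pmol per well) by reverse transfection in HEK293T cells stably carrying an SMN2-luciferase reporter; luminescence after 72 hours, normalized to negative-control siRNA, log10-transformed, MAD-scored.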
row,Sequence,median seed-adjusted z-score
1,GAUUGUCACAGAUAAUCUATT against BAI2,inactive: -0.114
2,CCAUCCUUCAGGCGAAUUATT against ACTR8,inactive: -0.366
3,GCAUCCUCCUGUACGAGAATT against GPR68,inactive: -0.0233
4,UGAUAUCUUUCUGUAUGAATT against TRIM49,inactive: 0.0648
5,GCAUCUUCACUGUAAAGGATT against AHSA2,inactive: -0.881
6,GCUCAGGAACUGACCGCAATT against HOXB7,inactive: -0.153
7,GGACGACAAUGAGCACAGATT against PLD1,inactive: 0.518
8,GCUUAUAUGUUACCAUGGATT against COG4,inactive: -0.508
9,GUGUAGAAGAGGACGUGAATT against RIPK1,inactive: -0.0157
10,AGACCACCUUCAUCCGACATT against EHD1,inactive: -0.616
11,CCAGAGGCCCAACGACUAATT against PTGER1,inactive: 0.383
12,GGAGGAACGCGAAAAGGUATT against SEPHS2,inactive: -0.392
13,CCAACUCGGCAAAACCGUUTT against NDUFS3,inactive: -0.54
14,GAAUGAGUUUUGUCAUGGATT against SUV39H2,inactive: -0.279
15,GAAUGAUGUUGACAUGAGUTT against SSR1,inactive: -0.434
16,GCCUAUCGAGUCAAGUAUATT against QARS,inactive: -0.411
17,GGCUGGUAUGUCUGCAGAATT against GSTK1,inactive: 0.234
18,GCCCUAGAGUUAUUACAAATT against SLC29A3,inactive: -0.0626
19,GAACAGAUGUUUGAGACUUTT against GUCA1A,inactive: 0.101
20,GCAUCCCAACGAAUUUCCUTT against ZNF701,inactive: -0.0161
21,CAAUCCAGGUGAUCGCAAATT against TPMT,inactive: 0.19
22,GGAAAUGCUUUAUAGAUCATT against TMTC2,inactive: 0.0277
23,AGGUGACAGUUAAACAUGATT against ZNF497,inactive: -0.33
24,CCAUGCCGCUCAUUGGUGATT against SYN1,inactive: -0.458
25,GGACACUUCUUAAGAAACATT against ZNF323,inactive: -0.319
26,GAGGCGCACAAAUACCGGATT against SLC25A1,inactive: 0.252
27,GGUGAACCACGGAUAGAUATT against PLS3,inactive: -0.167
28,CCAAACCACUACAACCCUUTT against RPP21,active: -1.09
29,AGCUCAUACCUGUCUGAUUTT against SLC3A2,inactive: -0.0428

# Reformatted with tabs: part of the list above
row	Sequence	median seed-adjusted z-score
4	UGAUAUCUUUCUGUAUGAATT against TRIM49	inactive: 0.0648
5	GCAUCUUCACUGUAAAGGATT against AHSA2	inactive: -0.881

# Reference: PubChem BioAssay AID1347426 (Functional Genomics Laboratory (NCATS/FGL), 2020)
